Some of these results come from one statement about several compounds together.
Target: T1, BRD4 BD2 (Homo sapiens, UniProt O60885, Y97A)
T1 construct: BRD4 (1-477) (Y97A) and (Y390A); made in house; host or cells: E. coli (pET15b vector)
Assay: TR-FRET competition assay, BRD4 BD2
Assay type: binding
Settings: in at least one of the TR-FRET assays; 1/2/3 log unit = at least 10/100/1000 fold
Protocol: Bromodomain binding was assessed utilising a time resolved fluorescent resonance energy transfer (TR-FRET) competition assay. To enable this approach a known, high affinity, pan-BET interacting small molecule was labelled with Alexa Fluor® 647, which is a far-red-fluorescent dye (Reference Compound X). Reference Compound X acts as a reporter of bromodomain binding and is the acceptor fluorophore component of the TR-FRET pair. Europium chelate, conjugated to an anti-6*His antibody, was utilised as the donor fluorophore in the TR-FRET pair. […] A TR-FRET signal is generated when the donor and acceptor fluorophores are in close proximity, between 20-80 Å, which is enabled in this assay by binding of Reference Compound X to the bromodomain protein.
If the acceptor fluorophore is in close proximity then energy transfer can occur, which leads to emission of Alexa Fluor® 647 at λ665 nm. In the presence of competitor compound, Reference Compound X can be displaced from binding to the bromodomain. If displacement occurs, the acceptor fluorophore is no longer in proximity to the donor fluorophore, which prevents fluorescent energy transfer and, subsequently, a loss of Alexa Fluor® 647 emission at λ665 nm.
The competition of the compounds of formula (I) with Reference Compound X for binding to the BET family (BRD2, BRD3, BRD4 and BRDT) was assessed using protein truncates spanning both bromodomain 1 (BD1) and bromodomain 2 (BD2). In order to monitor differential binding to either BD1 or BD2, single residue mutations of key tyrosines to alanine were made in the acetyl lysine binding pockets. To validate this approach, a double residue mutant tandem domain protein was produced for each of the BET family members. Utilising a Fluorescence Polarisation approach, binding affinities for each of the single and double mutants for Reference Compound X were determined. […] Final purification was completed by Superdex 200 prep grade size exclusion column. Purified protein was stored at −80° C. in 20 mM HEPES pH 7.5 and 100 mM NaCl.
Protocol for Bromodomain BRD2, 3, 4 and T, BD1+BD2 mutant TR-FRET competition assays: All assay components were dissolved in an assay buffer composing of 50 mM HEPES pH7.4, 50 mM NaCl, 5% Glycerol, 1 mM DTT and 1 mM CHAPS. Reference Compound X was diluted, in assay buffer containing 20 nM single mutant, tandem bromodomain protein, to a concentration equivalent to 2*Kd for this bromodomain. The solution containing bromodomain and Reference Compound X was added to dose response dilutions of test compound or DMSO vehicle (a maximum of 0.5% DMSO is used in this assay) in Greiner 384 well black low volume microtitre plates and subsequently incubated for 30 minutes at room temperature. An equal volume of 3 nM of anti-6*His Europium chelate was added to all wells, followed by a further 30 minute incubation at room temperature. TR-FRET was detected using a Perkin Elmer Multimode plate reader, by exciting the donor fluorophore at λ337 nm and subsequently, after a delay of 50 μsecs, measuring emission of the donor and acceptor fluorophores at λ615 nm and λ665 nm, respectively. In order to control these assays, 16 replicates each of uninhibited (DMSO vehicle) and inhibited (10*IC50 concentrations of Example 11 of WO 2011/054846A1) TR-FRET assays were included on every microtitre plate.

Structure (SMILES)	Selectivity for BRD4 BD2 over BRD4 BD1 (BRD4 BD2 pIC50 − BRD4 BD1 pIC50) [log unit]
CNC(=O)c1cc(C(=O)Nc2cnn(CCO)c2)cc2c1OCC2c1ccccc1 (single isomer, unassigned) [Example 19, (S*)-N^5-(1-(2-hydroxyethyl)-1H-pyrazol-4-yl)-N^7-methyl-3-phenyl-2,3-dihydrobenzofuran-5,7-dicarboxamide]	≥ 3
CNC(=O)c1cc(C(=O)NCC[C@@H]2CNCCO2)cc2c1OCC2c1ccccc1 (mixture of isomers) [Example 94, (+/−)N^7-methyl-N^5-(2-((R)-morpholin-2-yl)ethyl)-3-phenyl-2,3-dihydrobenzofuran-5,7-dicarboxamide]	≥ 3
CNC(=O)c1cc(C(=O)NCCCC2CCNCC2(F)F)cc2c1OCC2c1ccccc1 (stereo not drawn) [Example 15, N^5-(3-(3,3-difluoropiperidin-4-yl)propyl)-N^7-methyl-3-phenyl-2,3-dihydrobenzofuran-5,7-dicarboxamide]	≥ 3
CNC(=O)c1cc(C(=O)Nc2cnn(C)n2)cc2c1OCC2c1ccccc1 (single isomer, unassigned) [Example 17, (S*)-N^7-methyl-N^5-(2-methyl-2H-1,2,3-triazol-4-yl)-3-phenyl-2,3-dihydrobenzofuran-5,7-dicarboxamide]	≥ 3
CNC(=O)c1cc(C(=O)NCCc2cnn(C)c2)cc2c1OCC2c1ccc(F)cc1 (single isomer, unassigned) [Example 45, (S*)-3-(4-fluorophenyl)-N^7-methyl-N^5-(2-(1-methyl-1H-pyrazol-4-yl)ethyl)-2,3-dihydrobenzofuran-5,7-dicarboxamide]	≥ 3
CNC(=O)c1cc(C(=O)N[C@H]2[C@@H]3CC(F)(F)C[C@@H]32)cc2c1OCC2c1ccccc1 (mixture of isomers) [Example 25, (+/−)-N^5-((1R,5S,6r)-3,3-difluorobicyclo[3.1.0]hexan-6-yl)-N^7-methyl-3-phenyl-2,3-dihydrobenzofuran-5,7-dicarboxamide]	≥ 3

From US11273146B2, “Benzofuran derivatives and their use as bromodomain inhibitors” (GLAXOSMITHKLINE INTELLECTUAL PROPERTY (NO. 2) LIMITED, priority 2017, dated 2022)
